These are yes or no findings as the source states them, for the method shown. In cells and extracts the contact can be indirect. Binding can be weak; no strength is given.
Target: Rad21 cohesin subunit (Drosophila (endogenous in Kc cells))
Experiment: co-IP; DNase I-treated nuclear extract from cultured Kc cells (4 mg protein per mL) immunoprecipitated with guinea pig anti-Rad21 serum or preimmune serum (10 micrograms of serum per 100 microliters of extract); western blots with anti-Pc-RJ (1:2000) and anti-Ph (1:1200)

binding: binds
B1: Polycomb (Pc) PRC1 subunit (protein, UniProt P26017 1-390)
chain: MTGRGKGSKGKLGRDNATDDPVDLVYAAEKIIQKRVKKGVVEYRVKWKGWNQRYNTWEPEVNILDRRLIDIYEQTNKSSGTPSKRGIKKKEKEPDPEPESEEDEYTFTENDVDTHQATTSSATHDKESKKEKKHHHHHHHHHHIKSERNSGRRSESPLTHHHHHHHHESKRQRIDHSSSSNSSFTHNSFVPEPDSNSSSSEDQPLIGTKRKAEVLKESGKIGVTIKTSPDGPTIKPQPTQQVTPSQQQPFQDQQQAEKIASEAATQLKSEQQATPLATEAINTTPAESGAEEEEVANEEGNQQAPQVPSENNNIPKPCNNLAINQKQPLTPLSPRALPPRFWLPAKCNISNRVVITDVTVNLETVTIRECKTERGFFRERDMKGDSSPVA
